Measurements reported in PubChem BioAssay AID1671195 (Yale University, 2021)

Assay: 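Genes whose knockdown alters LDL uptake in liver cancer cells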 (primary screen)
Cell system: human Huh7 hepatoma cells
Reagent: siRNA pool against human genes, 18 nM
Time to read-out: about 2 to 2.5 days of knockdown, then 8 h LDL uptake
Treatment: DiI-labelled LDL at 30 µg/ml for 8 h, in lipoprotein-deficient serum medium
Measured: 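Per-cell DiI-LDL intensity by automated imaging; well means scaled to the plate median and given as a robust z-score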
Reading the numbers: robust z-score: higher = more LDL uptake after knockdown
Active means: 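a gene counts as active if at least two replicate z-scores exceed ±2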
This is a random part of about 22,000 deposited reagents. Of all reagents, about 1,510 (6.9%) were called active. 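Active includes knockdowns raising or lowering LDL uptake; positive z-scores mean more uptake, negative mean less.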 Entries without a mark were called inactive.

| target gene | robust z-score, replicate 1 | robust z-score, replicate 2 | robust z-score, replicate 3 |
| --- | --- | --- | --- |
| RFC1 | -0.586 | 0.652 | -0.416 |
| ELK3 | 0.341 | 1.06 | 0.256 |
| S100A7 | 0.119 | 0.579 | 0.391 |
| TMEM44 | 0.857 | 0.903 | 0.491 |
| PSAP | 0.19 | 1.22 | 0.108 |
| OR8K5 | 0.956 | 0.964 | 0.602 |
| NKX3-1 | 0.856 | 0.278 | 1.17 |
| ASIP | -0.733 | 0.0951 | -1.13 |
| F13B | -0.547 | 0.529 | -0.259 |
| AIMP2 | -0.615 | -0.872 | -0.401 |
| ATF2 | -0.909 | -0.774 | -0.669 |
| ROGDI | -1.1 | -1.02 | -1.12 |
| CSNK1A1 | 1.48 (active) | 1.96 | 2.25 |
| EIF3B | -1.76 | -1.07 | -1.47 |
| LOC441599 (retired record) | -0.686 | 0.335 | 0.272 |
| GALNT8 | -0.361 | 1.66 | -0.507 |
| NPY5R | -0.0197 | -0.221 | 0.434 |
| GIPC1 | 1.27 | 0.182 | 1.09 |
| NTN4 | 0.563 | 0.725 | 1.25 |
| RABAC1 | -0.501 | -0.702 | -1.01 |
| GJC2 | 1.46 | 1.85 | 0.781 |
| PRKCSH | 0.0269 | -0.23 | -0.111 |
| KCTD4 | -1.68 | -1.55 | -1.45 |
| QTMAN | 0.225 | -0.0114 | -0.0283 |
| CCDC127 | 0.797 | 0.759 | -0.263 |
| GPRASP3 | -1.17 | -1.18 | -0.723 |
| LOC442170 (retired record) | 1.46 | 1.17 | 1.4 |
| PHACTR2 | -0.0828 | 1.35 | 0.0904 |
| TYW1B | -0.0618 | 0.00126 | 0.017 |
| ZNF256 | -0.523 | 0.427 | -0.609 |
| NECTIN3 | -0.205 | 0.269 | -0.397 |
| LOC441339 (retired record) | -1.77 (active) | -2.45 | -2.3 |
| SHROOM2 | 0.26 | -0.193 | -0.261 |
| B4GAT1 | -2.1 | -0.0123 | -1.48 |
| VASN | -0.705 | -0.882 | -0.774 |
| ASXL2 | -0.266 | -0.518 | -1.64 |
| ANKRD20A3P | 1.01 | 0.596 | 1.06 |
| LMCD1-AS1 | 0.28 | 0.0184 | -0.0716 |
| HPR | 1.6 | -2.1 | 2.28 |
| CELF4 | 1.65 | 1.08 | 0.432 |
| PLPPR5 | 2.33 (active) | 1.55 | 2.46 |
| OR9Q2 | -1.32 | -1.62 | -1.63 |
| TCEAL4 | -0.806 | -0.628 | -0.924 |
| LIG1 | 0.954 | 0.71 | -0.23 |
| CRTC3 | -1.02 | -0.879 | -0.917 |
| LINC02693 | 1.1 | 1.08 | 1.23 |

Entries listed so far whose gene name starts with C or c (4):
| target gene | robust z-score, replicate 1 | robust z-score, replicate 2 | robust z-score, replicate 3 |
| --- | --- | --- | --- |
| CSNK1A1 | 1.48 (active) | 1.96 | 2.25 |
| CCDC127 | 0.797 | 0.759 | -0.263 |
| CELF4 | 1.65 | 1.08 | 0.432 |
| CRTC3 | -1.02 | -0.879 | -0.917 |
